Experimental data as given in paper PMC1543650.
These are yes or no findings as the source states them, for the method shown. Some entries that bind do so weakly or less than the wild type.

Protein sequences, listed by entry. Tags and fused reporters are not part of them. Residues count along the entry.
UniProt Q9NNX6, residues 59-404: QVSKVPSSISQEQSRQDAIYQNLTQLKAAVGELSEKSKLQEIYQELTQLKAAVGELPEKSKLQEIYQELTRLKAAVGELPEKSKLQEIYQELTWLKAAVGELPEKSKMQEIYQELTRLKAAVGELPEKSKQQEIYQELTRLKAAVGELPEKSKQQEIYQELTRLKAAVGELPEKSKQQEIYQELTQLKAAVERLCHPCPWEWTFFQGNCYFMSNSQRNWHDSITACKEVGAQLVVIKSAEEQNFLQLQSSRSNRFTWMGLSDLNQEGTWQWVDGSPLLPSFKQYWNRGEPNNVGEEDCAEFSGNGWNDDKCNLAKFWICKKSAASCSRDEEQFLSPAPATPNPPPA

Target: monomeric full-length gp120 WT of HIV-1 JR-CSF, without Fc tag (HIV-1 JR-CSF) (UniProt P20871)
Assay: ELISA; both purified

Substance: Fc-DC-SIGN (entire ectodomain of DC-SIGN fused in-frame with the Fc region of IgG1) (from UniProt Q9NNX6 59-404) (Fc fusion)
- binding: binds
